Laboratory results: PubChem BioAssay AID1259308 (NCATS, 2017)

- Purpose: 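Knock-downs that increase output of a recombinant reporter protein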 (primary screen)
- Cell system: human HEK293 embryonic kidney cells stably expressing firefly luciferase (HEK-CMV-Luc2-Hygro)
- Reagent: single siRNA against human genes, 0.8 pmol siRNA per well
- Timing: 72 h
- Read-out: 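Luciferase light (ONE-Glo) measured on one replicate plate set and viability (CellTiter-Glo) on the other, scaled to a negative control siRNA, with robust z-scores and luciferase per cell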
- Scale: total luciferase, z-score and total luciferase, % of control: higher = more reporter protein produced
- Rule for the call: 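Active when the median/MAD z-score for overall luciferase is greater than 3; a gene was taken forward for validation with new siRNAs if at least two of its three siRNAs passed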
- Calls: active = raised luciferase; inactive = no rise
The deposit covers about 59,000 reagents; this is a part drawn at random. About 1,510 of all reagents (2.6%) count as active. 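Calls use total luciferase alone and ignore viability, so some active siRNAs may act by altering cell number.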 The numbers tell different reagents against one gene apart. Further read-outs or replicates are left out here.

| target | siRNA no. | total luciferase, z-score | total luciferase, % of control | Call |
| --- | --- | --- | --- | --- |
| TMEM33 (transmembrane protein 33) | 1 | 1.51 | 112 | inactive |
| TMEM33 (transmembrane protein 33) | 2 | 0.571 | 93.2 | inactive |
| TMEM33 (transmembrane protein 33) | 3 | 2.5 | 132 | inactive |
| CCDC138 (coiled-coil domain containing 138) | 1 | -0.357 | 74.8 | inactive |
| CCDC138 (coiled-coil domain containing 138) | 2 | 2.83 | 138 | inactive |
| CCDC138 (coiled-coil domain containing 138) | 3 | -0.886 | 64.3 | inactive |
| MAP3K4 (mitogen-activated protein kinase kinase kinase 4) | 1 | -0.314 | 75.6 | inactive |
| MAP3K4 (mitogen-activated protein kinase kinase kinase 4) | 2 | -0.115 | 79.6 | inactive |
| MAP3K4 (mitogen-activated protein kinase kinase kinase 4) | 3 | 1.04 | 103 | inactive |
| ENOSF1 (enolase superfamily member 1) | 1 | -0.828 | 65.4 | inactive |
| ENOSF1 (enolase superfamily member 1) | 2 | 1.18 | 105 | inactive |
| ENOSF1 (enolase superfamily member 1) | 3 | 0.509 | 92 | inactive |
| OSBPL7 (oxysterol binding protein like 7) | 1 | -0.395 | 74 | inactive |
| OSBPL7 (oxysterol binding protein like 7) | 2 | 0.839 | 98.6 | inactive |
| OSBPL7 (oxysterol binding protein like 7) | 3 | -0.776 | 66.5 | inactive |
| ATP5PO (ATP synthase peripheral stalk subunit OSCP) | 1 | -0.43 | 73.3 | inactive |
| ATP5PO (ATP synthase peripheral stalk subunit OSCP) | 2 | 0.469 | 91.2 | inactive |
| ATP5PO (ATP synthase peripheral stalk subunit OSCP) | 3 | -0.378 | 74.4 | inactive |
| CPLX4 (complexin 4) | 1 | 1.06 | 103 | inactive |
| CPLX4 (complexin 4) | 2 | -1.49 | 52.3 | inactive |
| CPLX4 (complexin 4) | 3 | 0.0165 | 82.2 | inactive |
| TSPAN16 (tetraspanin 16) | 1 | -1.42 | 53.6 | inactive |
| TSPAN16 (tetraspanin 16) | 2 | -0.534 | 71.3 | inactive |
| TSPAN16 (tetraspanin 16) | 3 | -0.184 | 78.2 | inactive |

Reformatted: results already given.
{"target": "CCDC138 (coiled-coil domain containing 138)", "siRNA no.": 2, "total luciferase, z-score": 2.83, "total luciferase, % of control": 138, "Call": "inactive"}
{"target": "CCDC138 (coiled-coil domain containing 138)", "siRNA no.": 3, "total luciferase, z-score": -0.886, "total luciferase, % of control": 64.3, "Call": "inactive"}
